In patent US9164090B2, “Methods for detecting molecular interactions” (Korea Advanced Institute of Science and Technology, priority 2007, dated 2015):
At least one compound was matched to its structure with a doubt left.

Test system: IkBα and bTrCP
Assay: Formation of nano-assembly matrix by IkBα-bTrCP interaction on physiological signal in Hela cells
Format: cell-based
Settings: TNFa and Rapamycin treatment; FRB-ECFP-FT, FKBP-mRFP-bTrCP and IkBα-YFP-FKBP

`CO[C@H]1C[C@@H]2CC[C@@H](C)[C@@](O)(O2)C(=O)C(=O)N2CCCC[C@H]2C(=O)O[C@H]([C@H](C)C[C@@H]2CC[C@@H](O)[C@H](OC)C2)CC(=O)[C@H](C)/C=C(\C)[C@@H](O)[C@@H](OC)C(=O)[C@H](C)C[C@H](C)/C=C/C=C/C=C/1C` [Rapamycin] was tested, and the “formation of nano-assembly matrix” value was “forming a nano-assembly matrix of ferritin in the cells”.
